Data: patent publication US20190030126A1, “Inhibitors of the Interaction BCL-2 L10 / IP3 Receptors” (Universite Claude Bernard - Lyon 1, priority 2016, published 2019)
These are yes or no findings as the source states them, for the method shown. Binding seen in cells or lysates may run through a third protein. Some results given as binding are weak or reduced against the parent protein; the word gives no strength. Where a sequence is shown, tags or fusion partners need not be part of it.

Target: T1, Flag-Nrh (human Bcl-2 L10/Nrh protein tagged with a Flag epitope) (human) (UniProt Q9HD36)
T1 sequence (looked up): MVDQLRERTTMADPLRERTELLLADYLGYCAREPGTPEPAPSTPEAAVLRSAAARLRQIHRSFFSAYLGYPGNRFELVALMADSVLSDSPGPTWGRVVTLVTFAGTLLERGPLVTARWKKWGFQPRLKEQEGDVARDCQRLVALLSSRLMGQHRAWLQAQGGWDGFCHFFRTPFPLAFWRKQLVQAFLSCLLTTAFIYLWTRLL
Assay: streptavidin pull-down of biotin-labelled peptide (5 µg), HeLa cell extracts

binding: binds
B1: biotin-labelled Nrh 1-23 wild-type peptide (peptide)
peptide: MADPLRERTELLLADYLGYCARE
modifications: biotin-labelled (position not given)
